PubChem BioAssay AID504834 (National Center for Advancing Translational Sciences (NCATS), 2011)
“And” between values parts separate entries of the source, which are not always exact repeats. Equal values may be shown once. In all, about 320,000 compounds went through this assay and about 22,000 (6.9%) were called active. The shares of active, inactive and inconclusive entries below differ from those in the screen. Calls follow the shape of the dose curve; as a rule, active = well fitted inhibition curve with a large enough effect; inconclusive = small, poorly fitted or top-dose-only effect, or another doubt; inactive = no such curve, though single readings can be large or run the other way. Where the call is inconclusive, the potency comes from a doubtful curve fit.

assay: Primary qHTS for delayed death inhibitors of the malarial parasite plastid, 96 hour incubation; conditions: P. falciparum luciferase reporter growth; series mostly up to 28.7 µM; activity change, negative = inhibition: at the top concentration
Summary of the method: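 Two parasite generations (96 h, 37 C, 5% CO2) of compound exposure in infected erythrocytes (0.05% parasitemia, 2% hematocrit). Luciferase-reporter P. falciparum; decreased luminescence indicates inhibited growth, aimed at apicoplast-acting delayed death.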
% is scaled to controls: 0 for no effect and ±100 for the full control effect; potency is read from the fitted curve at half-maximal effect.

| SMILES | Potency | activity change, negative = inhibition |
| --- | --- | --- |
| CCNc1nc(NCC)n2c(SCC(=O)Nc3cccc(Cl)c3)nnc2n1 | active: 5.22 µM | – |
| CCOc1ccccc1NC(=O)CSc1nnc(CNC(=O)c2cc(OC)c(OC)c(OC)c2)o1 | inconclusive: 3.29 µM [inhibitor, partial curve, poor fit] | – |
| Cc1ccc(-c2nnc(Nc3ccc(C(=O)N(C)C)cc3)c3ccccc23)cc1S(N)(=O)=O | – | inactive: -0.164% |
| COCCN(C(=O)c1cc(Cl)ccn1)c1c(N)n(Cc2ccccc2)c(=O)[nH]c1=O | – | inactive: 3.76% |
| O=C(COC(=O)c1ccc(Br)o1)NCC(=O)Nc1ccc(F)cc1 | inconclusive: 0.928 µM [inhibitor, partial curve, poor fit] | – |
| Cc1cc(C)nc(SCC2COc3ccccc3O2)n1 (centres undefined) | – | inactive: 87% |
| Cc1ccccc1CC(=O)Nc1ccc(S(=O)(=O)N2CCN(C)CC2)cc1 | inconclusive: 18.5 µM [inhibitor, single point] | – |
| Cn1c(SCc2ccc(F)cc2)nnc1-c1cnccn1 | – | inactive: 20.1% |
| CCCN(CC(=O)Nc1ccccc1C)C(=O)C1CC(=O)N(c2ccccc2C(C)CC)C1 (centres undefined) | inconclusive: 18.5 µM [inhibitor, single point] | – |
| COc1ccc(N2CCN(CCNC(=O)CCC(=O)NNc3nc4ccccc4c4nc(C)nn34)CC2)cc1 | inconclusive: 0.0657 µM [inhibitor, full curve, poor fit] | – |
| CN1CCN(c2ccccc2NC(=O)COc2ccc(C3CCCCC3)cc2)CC1 | – | inactive: 32.9% |
| O=C(CSc1n[nH]c(=O)[nH]c1=O)Nc1cccc(S(=O)(=O)N2CCOCC2)c1 | – | inactive: 3.33% |
| CC(=O)N1CCCc2cc(S(=O)(=O)NC(C(=O)NC(C)c3ccccc3)C(C)C)ccc21 (centres undefined) | inconclusive: 0.131 µM [inhibitor, partial curve, poor fit] | – |
| Cc1ccc[n+](C(C)C(=O)Nc2ccc([N+](=O)[O-])cc2C)c1 (centres undefined) | – | inactive: 28.6% |
| CC(C)N1C(=O)CCC1C(=O)NCCc1ccc(Cl)cc1 (centres undefined) | – | inactive: 51.2% |
| CCOc1ccccc1NC(=O)CCc1nnc2ccc(NCc3ccco3)nn12 | active: 8.28 µM | – |
| COc1ccc(CC(=O)Nn2c(-c3ccccc3)nc3ccccc3c2=O)cc1 | inconclusive: 13.1 µM [inhibitor, partial curve, poor fit] | – |
| Fc1ccc(-c2ncc3ccccn23)cc1 | inconclusive: 14.7 µM [inhibitor, partial curve, poor fit] | – |
| CC(C)CC(=O)c1c[nH]c(C(=O)NCc2cccnc2)c1 | inconclusive: 16.5 µM [inhibitor, single point] | – |
| Cc1cc(N2CCCCC2)nc(NCc2ccccc2)n1 | active: 2.94 µM | – |
| O=C(CCNS(=O)(=O)c1cccs1)N1CCCCCC1 | inconclusive: 18.5 µM [inhibitor, single point] | – |

| SMILES | Potency | activity change, negative = inhibition |
| --- | --- | --- |
| CC(=O)Nc1ccc(S(=O)(=O)N(C)CC(=O)Nc2ccc(F)c(F)c2F)cc1 | inconclusive: 8.28 µM [inhibitor, partial curve, poor fit] | – |
| O=C(O)CC(NC(=O)COc1ccc(Cl)cc1Cl)C(=O)O (centres undefined) | – | inactive: 2.28% |
| COC(=O)CSc1nnc(CNC(=O)c2ccc(OC)cc2OC)n1C | inconclusive: 13.1 µM [inhibitor, single point] | – |
| O=C(COC(=O)C1CC1)Nc1ccc(Cl)cc1Cl | – | inactive: -16% |
| CCOc1ccc(C(C(=O)NC2CCCC2)N(C(=O)c2snc(C(N)=O)c2N)C2CCCC2)cc1 (centres undefined) | inconclusive: 11.7 µM [inhibitor, single point] | – |
| COCCNC(=O)c1cccc(OC2CCN(Cc3cccc(SC)c3)CC2)c1 | inconclusive: 11.7 µM [inhibitor, single point] | – |
| COc1ccc(-c2nc3ccccc3c(=O)n2NC(=O)c2cccnc2Cl)cc1OC | inconclusive: 18.5 µM [inhibitor, single point] | – |
| O=C(CSc1ncn(-c2ccccc2)n1)N1CCc2ccccc21 | active: 10.4 µM | – |
| CCOCN(C(=O)Cn1cnc2ccccc21)c1c(C)cccc1CC | – | inactive: 0% |
| COc1cccc(N2CCN(CC(=O)N3CCN(S(=O)(=O)c4ccc(Cl)cc4)CC3)CC2)c1 | inconclusive: 18.5 µM [inhibitor, single point] | – |
| Oc1ccccc1Nc1nc(NCC2CCCO2)c2ccccc2n1 (centres undefined) | inconclusive: 10.4 µM [inhibitor, single point] | – |
| CC(=O)c1ccc(NC(=O)C(C)OC(=O)c2ccc(Br)o2)cc1 (centres undefined) | – | inactive: 5.56% |
| COc1ccc(NC(=O)CCCN2C(=O)C(c3ccccc3)Oc3cccnc32)cc1 (centres undefined) | – | inactive: 100% |
| O=C(Nc1c(Cl)cc(Cl)cc1C(=O)NCCN1CCOCC1)c1ccc(Cl)cc1Cl | inconclusive: 0.465 µM [inhibitor, full curve, poor fit] | – |
| COc1cc(NC(=S)N2CCN(CCO)CC2)cc(OC)c1 | inconclusive: 0.0465 µM [inhibitor, full curve, poor fit] | – |
| CCC(=O)c1ccc(OCC(=O)OCC(=O)c2cc(C)n(CC3CCCO3)c2C)cc1 (centres undefined) | – | inactive: 3.72% |
| Cc1ccc2c(c1)c1c3n2CCN[C@H]3CCC1 | inconclusive: 19 µM [inhibitor, single point] | – |
| CCc1ccccc1NC(=O)CN(C)C(=O)CSc1nnc(Nc2ccc(C)cc2)s1 | inconclusive: 1.17 µM [inhibitor, partial curve, poor fit] | – |
| COc1ccc(NC(=O)c2[nH]c(C)c(C(C)=O)c2C)cc1S(=O)(=O)N1CCOCC1 | – | inactive: -0.0855% |
| C=CCn1c(OCc2ccccc2)n[nH]c1=S | inconclusive: 11.7 µM [inhibitor, partial curve, poor fit] | – |
| CC(C)(C)NS(=O)(=O)c1ccc(CCC(=O)Nc2ccc3c(c2)OCO3)cc1 | inconclusive: 11.7 µM [inhibitor, single point] | – |
| O=C(NCc1cccc2[nH]ccc12)C1CCC(=O)N(CCc2ccc(Cl)cc2)C1 (centres undefined) | – | inactive: 101% |

Part of the list above, as tab-separated lines:
SMILES	Potency	activity change, negative = inhibition
CCOc1ccc(C(C(=O)NC2CCCC2)N(C(=O)c2snc(C(N)=O)c2N)C2CCCC2)cc1 (centres undefined)	inconclusive: 11.7 µM [inhibitor, single point]	–
COCCNC(=O)c1cccc(OC2CCN(Cc3cccc(SC)c3)CC2)c1	inconclusive: 11.7 µM [inhibitor, single point]	–
COc1ccc(-c2nc3ccccc3c(=O)n2NC(=O)c2cccnc2Cl)cc1OC	inconclusive: 18.5 µM [inhibitor, single point]	–
